Some of these results come from one statement about several compounds together. Some compounds share one range, which may span the group rather than tell each member.
What follows are compounds tested against T1, α4β7 integrin (Homo sapiens, UniProt P13612+P26010) (assay: RPMI 8866 cell adhesion to mouse MAdCAM-1 (α4β7 binding assay)). Settings: RPMI 8866 cells, immobilized mouse MAdCAM-1; bin with mixed units (μM upper, nM lower), units kept in value; read-out: IC50 values in the α4β7 assays.
T1 construct: endogenous in cells; host or cells: RPMI 8866 cells
T1 sequence (P13612 34-1032): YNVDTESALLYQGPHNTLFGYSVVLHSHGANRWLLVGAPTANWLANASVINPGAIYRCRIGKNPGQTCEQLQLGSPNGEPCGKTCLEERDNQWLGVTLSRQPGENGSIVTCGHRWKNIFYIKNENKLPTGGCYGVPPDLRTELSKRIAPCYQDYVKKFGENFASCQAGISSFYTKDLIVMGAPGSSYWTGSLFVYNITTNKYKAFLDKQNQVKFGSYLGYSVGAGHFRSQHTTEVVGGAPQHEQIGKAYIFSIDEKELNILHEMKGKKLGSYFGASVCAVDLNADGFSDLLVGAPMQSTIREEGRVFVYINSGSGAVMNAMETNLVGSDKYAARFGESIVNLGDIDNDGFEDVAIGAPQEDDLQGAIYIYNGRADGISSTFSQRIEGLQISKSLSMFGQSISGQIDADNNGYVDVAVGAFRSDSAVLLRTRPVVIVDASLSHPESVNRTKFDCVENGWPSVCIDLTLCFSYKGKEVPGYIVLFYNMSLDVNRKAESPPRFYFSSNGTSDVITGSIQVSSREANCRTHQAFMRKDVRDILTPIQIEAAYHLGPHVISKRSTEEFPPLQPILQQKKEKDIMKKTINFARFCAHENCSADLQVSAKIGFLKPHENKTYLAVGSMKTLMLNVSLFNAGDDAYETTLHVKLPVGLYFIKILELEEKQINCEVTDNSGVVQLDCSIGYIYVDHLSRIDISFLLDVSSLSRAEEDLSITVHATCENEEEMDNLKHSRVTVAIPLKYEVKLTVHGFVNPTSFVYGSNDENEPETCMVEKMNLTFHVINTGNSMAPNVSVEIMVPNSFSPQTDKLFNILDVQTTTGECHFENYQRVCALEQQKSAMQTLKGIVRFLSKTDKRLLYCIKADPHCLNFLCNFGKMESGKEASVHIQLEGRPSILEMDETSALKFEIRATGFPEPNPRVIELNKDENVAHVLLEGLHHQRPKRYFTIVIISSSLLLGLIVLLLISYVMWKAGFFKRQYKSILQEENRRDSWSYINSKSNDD
T1 sequence (P26010 20-798): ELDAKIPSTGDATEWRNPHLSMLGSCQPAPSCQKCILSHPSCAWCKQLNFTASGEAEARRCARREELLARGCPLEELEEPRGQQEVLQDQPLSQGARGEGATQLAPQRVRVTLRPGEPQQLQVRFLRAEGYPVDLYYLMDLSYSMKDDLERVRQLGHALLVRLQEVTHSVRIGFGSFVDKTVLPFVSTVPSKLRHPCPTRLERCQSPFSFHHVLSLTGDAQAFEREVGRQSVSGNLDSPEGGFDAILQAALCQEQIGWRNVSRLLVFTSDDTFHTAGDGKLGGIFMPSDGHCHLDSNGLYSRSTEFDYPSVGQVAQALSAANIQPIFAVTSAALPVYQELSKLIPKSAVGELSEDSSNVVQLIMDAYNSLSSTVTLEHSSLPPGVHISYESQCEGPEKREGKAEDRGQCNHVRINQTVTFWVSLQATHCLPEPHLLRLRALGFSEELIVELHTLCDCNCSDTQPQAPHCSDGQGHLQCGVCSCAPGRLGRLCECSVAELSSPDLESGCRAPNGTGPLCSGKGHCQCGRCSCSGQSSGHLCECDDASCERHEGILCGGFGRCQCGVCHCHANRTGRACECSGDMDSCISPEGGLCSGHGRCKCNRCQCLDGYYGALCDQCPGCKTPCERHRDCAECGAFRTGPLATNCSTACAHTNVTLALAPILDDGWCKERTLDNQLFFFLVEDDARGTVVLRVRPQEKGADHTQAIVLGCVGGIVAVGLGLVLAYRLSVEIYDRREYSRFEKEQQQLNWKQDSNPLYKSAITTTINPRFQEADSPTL
Format: cell-based
Description: RPMI 8866 Cell Adhesion to Mouse MAdCAM-1 (α4β7 Binding Assay)
Recombinant mouse MAdCAM-1 was coated on a 96-well plate overnight. Unbound MAdCAM-1 was washed away and plates were blocked with 0,5% BSA. Cells were labelled with BCECF-AM and added to ligand-coated wells. Test compounds were added to the wells followed by RPMI 8866 and the adhesion assay was performed for 45 min at room temperature. Following incubation, the wells were emptied and washed. Inhibition of binding was measured by the quantity of fluorescence bound to the plate for each of the various concentrations of test compound, as well as for controls containing no test compound, with a Cytofluor 2300 fluorescence measurement system.

Row | Compound | IC50 [µM]
1 | O=C(Nc1ccccc1S(=O)(=O)N1CCCCC1)N[C@@H](Cc1ccc(NC(=O)c2c(Cl)cncc2Cl)cc1)C(=O)O [Example 62, (S)-3-{4-[(3,5-Dichloropyridine-4-carbonyl)amino]phenyl}-2-{3-[2-(piperidine-1-sulfonyl)phenyl]ureido}propionic acid] | 0.1 to 1
2 | COc1ccc(OC)c(S(=O)(=O)c2ccc(Cl)cc2NC(=O)N[C@@H](Cc2ccc(NC(=O)c3c(Cl)cncc3Cl)cc2)C(=O)O)c1 [Example 64, (S)-2-{3-[5-Chloro-2-(2,5-dimethoxybenzenesulfonyl)phenyl]ureido}-3-{4-[(3,5-dichloropyridine-4-carbonyl)amino]phenyl}propionic acid] | 0.1 to 1
3 | O=C(Nc1cc(Cl)ccc1S(=O)(=O)c1ccccc1)N[C@@H](Cc1ccc(NC(=O)c2c(Cl)cncc2Cl)cc1)C(=O)O [Example 68, (S)-2-[3-(2-Benzenesulfonyl-5-chlorophenyl)ureido]-3-{4-[(3,5-dichloropyridine-4-carbonyl)amino]phenyl}propionic acid] | 0.1 to 1
4 | O=C(Nc1ccccc1S(=O)(=O)c1ccccc1)N[C@@H](Cc1ccc(NC(=O)c2c(Cl)cncc2Cl)cc1)C(=O)O [Example 70, (S)-2-[3-(2-Benzenesulfonylphenyl)ureido]-3-{4-[(3,5-dichloropyridine-4-carbonyl)amino]phenyl}propionic acid] | 0.1 to 1
5 | CN(C(=O)N[C@@H](Cc1ccc(NC(=O)c2c(Cl)cncc2Cl)cc1)C(=O)O)c1ccccc1S(=O)(=O)N1CCCCC1 [Example 88, (S)-3-(4-{[1-(3,5-Dichloropyridin-4-yl)methyanoyl]amino}phenyl)-2-{3-methyl-3-[2-(piperidine-1-sulfonyl)phenyl]ureido}propionic acid.] | 0.1 to 1
6 | O=C(Nc1ccccc1S(=O)(=O)c1ccccc1)N[C@@H](Cc1ccc(NC(=O)c2c(Br)cncc2Br)cc1)C(=O)O [Example 106, (S)-2-[3-(2-Benzenesulfonylphenyl)ureido]-3-(4-{[1-(3,5-dibromopyridin-4-yl)-methanoyl]amino}phenyl)propionic acid] | 0.1 to 1

Reference: patent publication US7253171B2 (Laboratorios Almirall, S.A., priority 2001, dated 2007)
